Some of these results come from one statement about several compounds together.
Tested on: Ixodes ricinus
Experiment: In vitro Warm Plate Assay for ticks
Type: in vivo
Conditions: Table 9
Method: Repellent efficacy of the different compounds was assessed against the sheep tick, Ixodes ricinus. I. ricinus is one of the recommended model organisms mentioned by the Guidance on the European Biological Products Regulation [Vol II, Efficacy-Assessment & Evaluation (Parts B+C), v. 3.0, April 2018]. Observations of repellent efficacy were made on last stage nymphs.
The repellent efficacy was assessed using the protocol of the in-vitro Warm Plate Assay as defined in Kröber T, Bourquin M, Guerin P M. A standardized in vivo and in vitro test method for evaluating tick repellents. Pesticide Biochemistry and Physiology. 2013; 107 (2): 160-168.].
The mean±SD number of ticks Ixodes ricinus walking down (affected), falling (affected) or walking-up (non affected) from the warm plate treated with ethanol, N,N-diethyl-3-methylbenzamide, (2,5-dimethyl-2,3-dihydro-1H-inden-2yl)methanol (Ingredient 2) or (2,4,6-trimethyl-2,3-dihydro-1H-inden-2-yl)methanol (Ingredient 1) diluted in ethanol at 0.4 mg/ml and 10 mg/mL was assessed on n groups of 12 ticks (n=2-5).
In this in-vitro assay, the percentage of ticks Ixodes ricinus affected by the stimulus loaded on the warm plate was measured in order to assess the repellency effect. Twelve ticks were assessed per concentrations that goes from 0.0016% up to 1% in ethanol. […]

Compound	threshold concentration to be efficient to repel the ticks
c1ccc2c(c1)CC1COCOC21 (centres unmarked) [ingredient #3, 4,4A,5,9B-tetrahydro-indeno[1,2-D]-1,3-dioxin]	above 0.447%
CC1OC(C)C2Cc3ccccc3C2O1 (centres unmarked) [ingredient #5, 2,4-dimethyl-4,4a,5,9b-tetrahydroindeno[1,2-d][1,3]dioxine]	above 0.447%
